From patent publication EP0609518A1, “Optically active aminopyridine derivative and use thereof” (THE GREEN CROSS CORPORATION, priority 1992, dated 1994)
For at least one compound, name, drawing or mass did not settle the structure.

System: aorta thoracica
Assay: Suppression of aorta thoracica constriction (relaxation of KCl-contracted aorta strips)
Set-up: species or system male Wistar rat
Details: concentration giving 50% relaxation of rat aorta strips contracted with KCl (20 mM); complete relaxation = papaverine (10-⁴ M); cumulative addition, 37°C

Row | SMILES | IC₅₀
1 | Cl.N#CN=C(Nc1ccc(N)nc1)N[C@@H]1C[C@@H]2CC[C@H]1C2 [hydrochloride of (-)-N-(6-amino-3-pyridyl)-N''-cyano-N'-[(1S] [hydrochloride of (-)-N-(6-amino-3-pyridyl)-N''-cyano-N'-[(1S,2R,4R)-2-norbornyl]guanidine] | 7.0×10⁻⁷M
2 | Cl.N#CN=C(Nc1ccc(N)nc1)N[C@@H]1C[C@@H]2CC[C@H]1C2 (racemic) [hydrochloride of N-(6-amino-3-pyridyl)-N''-cyano-N'-[(1S,2R,] [hydrochloride of N-(6-amino-3-pyridyl)-N''-cyano-N'-[(1S,2R,4R)-2-norbornyl]guanidine racemate] | 4.8x10⁻⁷M
